Reference: article PMC5956559
No constants are given. Whether binding was seen depends on the method and setting. Binding seen in cells or lysates may run through a third protein. Some results given as binding are weak or reduced against the parent protein; the word gives no strength.

Amino acid sequences for entries named in this document (tags omitted).
UniProt P03077: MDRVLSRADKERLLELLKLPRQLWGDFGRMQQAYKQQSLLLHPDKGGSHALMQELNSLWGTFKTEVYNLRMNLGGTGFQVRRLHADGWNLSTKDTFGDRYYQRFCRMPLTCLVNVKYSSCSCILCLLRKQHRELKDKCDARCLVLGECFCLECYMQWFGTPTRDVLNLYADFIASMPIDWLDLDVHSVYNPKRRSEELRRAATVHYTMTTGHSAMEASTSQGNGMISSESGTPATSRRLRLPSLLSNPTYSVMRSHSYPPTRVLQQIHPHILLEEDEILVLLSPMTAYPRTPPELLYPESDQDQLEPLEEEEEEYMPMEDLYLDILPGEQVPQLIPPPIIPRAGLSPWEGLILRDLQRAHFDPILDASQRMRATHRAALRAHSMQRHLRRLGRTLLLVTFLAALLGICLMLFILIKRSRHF
UniProt P26450: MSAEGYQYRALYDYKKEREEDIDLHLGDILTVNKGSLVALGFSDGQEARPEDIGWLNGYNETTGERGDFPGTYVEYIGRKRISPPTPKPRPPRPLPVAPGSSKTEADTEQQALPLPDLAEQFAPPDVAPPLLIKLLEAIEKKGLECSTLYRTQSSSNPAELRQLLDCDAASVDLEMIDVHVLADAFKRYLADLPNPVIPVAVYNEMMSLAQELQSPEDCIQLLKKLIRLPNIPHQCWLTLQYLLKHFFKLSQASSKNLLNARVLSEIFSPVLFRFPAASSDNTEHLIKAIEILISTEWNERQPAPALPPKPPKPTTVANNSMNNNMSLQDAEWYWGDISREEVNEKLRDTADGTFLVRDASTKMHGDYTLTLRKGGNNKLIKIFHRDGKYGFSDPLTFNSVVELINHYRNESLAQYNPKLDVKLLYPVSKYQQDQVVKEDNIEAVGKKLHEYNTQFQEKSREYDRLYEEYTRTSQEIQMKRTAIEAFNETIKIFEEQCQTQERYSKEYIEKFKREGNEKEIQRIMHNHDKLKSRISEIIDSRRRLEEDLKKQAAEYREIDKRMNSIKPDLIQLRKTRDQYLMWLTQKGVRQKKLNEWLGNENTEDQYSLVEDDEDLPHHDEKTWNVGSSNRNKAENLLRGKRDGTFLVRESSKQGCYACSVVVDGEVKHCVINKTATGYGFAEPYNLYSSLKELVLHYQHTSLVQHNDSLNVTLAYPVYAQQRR

Target: polyoma middle T antigen (polyoma virus) (UniProt P03077)
Assay: co-IP; PyMT immunoprecipitated with rat anti-PyMT plus Protein G-Sepharose (2 h, 4 °C) from RIPA buffer (0.1% SDS) lysates of tumors of wild-type and Net1 knockout MMTV-PyMT mice; normal rat IgG as control; western blot

phosphatidylinositol 3-kinase regulatory subunit p85α (from UniProt P26450 1-724)
binding: binds
